For this assay, the target named is human TREM2 (human). The assay can be described thus: antibody competition assay.

The source of these data is patent US20260250381A1.

These are yes or no findings as the source states them, for the method shown. Binding calls can cover weak binding; strength is not graded here.

B1: 5E3 (antibody, V domains shown)
VH: QVQLVQSGAEVKKPGASVKVSCKASGYTFTGYYIHWVRQAPGLGLEWMGWINPYSGGTTSAQKFQGRVTMTRDTSISSAYMELSRLRSDDTAVYYCARDGGYLALYGTDVWGQGTTVTVSS
VL: DIQMTQSPSSLSASVGDRVTITCRASQGISNYLAWFQQKPGKAPKSLIYAASSLQSGVPSKFSGSGSGTDFTLTISSLQPEDFATYYCQQYSTYPFTFGPGTKVDIK
Regarding B1, the binding result is reported as “binds”.

B2: 4G10 (antibody, V domains shown)
VH: EVQLVQSGAEVKKPGESLKISCKGSGYSFPSYWIAWVRQMPGKGLEWMGIIYPGDSDTRYSPSFQGQVTISADKSISTAFLKWSSLKASDTAMYFCARQGIEVTGTGGLDVWGQGTTVTVSS
VL: DIQMTQSPSSLSASVGDRVTITCRASQGIRNDLGWYQQKPGNAPKRLIYAASSLPSGVPSRFSGSGSGPEFTLTISSLQPEDFATYYCLQHNSYPWTFGQGTKVEIT
As for B2, the binding entry was “binds”.

B3: 10E3 (antibody, V domains shown)
VH: EVQLVQSGAEVKKPGESLMISCKGSGYSFTNYWIGWVRQMPGKGLEWMGIIYPGDSDTRYSPSFQGQVTISADKSISTAYLQWSSLKASDTAMYFCARRRQGIWGDALDIWGQGTLVTVSS
VL: EIVMTQSPATLSVSPGERATLSCRASQSVSSNLAWFQQKPGQAPRLLIYGASTRATGIPARFSVSGSGTEFTLTISSLQSEDFAFYYCLQDNNWPPTFGPGTKVDIK
As for B3, the binding result is “binds”.

B4: 13E7 (antibody, V domains shown)
VH: EVQLVQSGAEVKKPGESLMISCKGSGYSFTSYWIGWVRQMPGKGLEWMGIIYPGDSDTRYSPSFQGQVTISADKSISTAYLQWSSLKASDTAMYFCARRRQGIWGDALDFWGQGTLVTVSS
VL: EIVMTQSPATLSVSPGERATLSCRASQSVSSNLAWFQQKPGQAPRLLIYGASTRATGIPARFSVSGSGTEFTLTISSLQSEDFAVYYCLQDNNWPPTFGPGTKVDIK
For B4, the binding entry was “binds”.

B5: 32E3 (antibody, V domains shown)
VH: EVQLVQSGAEVKKPGESLKISCKGSGYSFTSYWIGWVRQMPGKGLEWMGIIYPGDSDTRYSPSFQGQVTISADKSISTAYLQWSTLKASDTAIYYCARHDIIPAAPGAFDIWGQGTMVTVSS
VL: EFVLTQSPGTLSLSPGERATLSCRASQIISSNYLAWYQQKPGQAPRLLIYSASSRATGIPDRFSGSGSGTDFTLTISRLEPEDFAVYYCQQFDSSPITFGRGTRLDIK
Regarding B5, the binding result is given as “binds”.

B6: 16B8 (antibody, V domains shown)
VH: QVQLVQSGAEVKKPGASVKVSCKASGYTFTNYGISWVRQAPGQGLEWMGWISAYNGNTNYAQKLQGRVTMTTDTSTSTVYMELRSLRSDDTAVYYCARRGYSYGSFDYWGQGTLVTVSS
VL: DIQMTQSPSSVSASVGDRVTVTCRASQDINSWLAWYQQKPGKAPKLLIYAASSLQTGVPSRFSGSGSGTDFTLTISSLQPEDFATYSCQQSNSFPITFGQGTRLEIK
In the case of B6, the binding entry was “binds”.

B7: 4C5 (antibody, V domains shown)
VH: EVQLVQSGAEVKKPGESLKISCKGSGHSFTNYWIAWVRQMPGKGLEWMGIIYPGDSDTRYSPSFQGQVTISADKSISTAYLQWSSLKASDTAVYFCARQRTFYYDSSGYFDYWGQGTLVTVSS
VL: DIQMTQSPSSVSASVGDRVTITCRASQGISNWLAWYQQKPGKAPKLLIYAASSLQVGVPLRFSGSGSGTDFTLTISSLQPEDFATYYCQQADSFPRNFGQGTKLEIK
Take B7: the binding entry is listed as “binds”.

B8: 6E7 (antibody, V domains shown)
VH: EVQLVQSGAEVKKPGESLKISCKGSGYSFTSYWIAWVRQMPGKGLEWMGIIYPGDSDTRYSPSFQGQVTISADKSISTAYLQWSSLKASDTAMYFCARQRTFYYDSSDYFDYWGQGTLVTVSS
VL: DIQMTQSPSSVSASVGDRVTITCRASQGISSWLAWYQQKPGKAPKLLIYAASSLQNGVPSRFSGSGSGTDFTLTISSLQPEDFATYFCQQADSFPRTFGQGTKLEIK
Consider B8, for which the binding entry is given as “binds”.

B9: 26C10 (antibody, V domains shown)
VH: EVQLVESGGALVQPGGSLRLSCAASGFTFSSFGMSWVRQAPGKGLEWVSYISSSSFTIYYADSVKGRFTISRDNAKNSFYLQMNSLRDEDTAVYFCVREGGITMVRGVSSYGMDVWGQGTTVTVSS
VL: SFELTQPPSVSVSPGQTASITCSGDKLGDKYVCWYQQKPGQSPMLVIYQDTKRPSGIPERFSGSNSGNTATLTISGTQAMDEADYYCQAWDSSTVVFGGGTKLTVL
Consider B9, for which the binding result is “binds”.
